Values of other authors, collected in patent US20160030562A1, “METHODS TO ENHANCE CANCER TREATMENT” (INTERNATIONAL BUSINESS MACHINES CORPORATION, priority 2011, published 2016).

Tested on: plasma cholesterol
Conditions: 80 mg daily; cited from earlier work

In the case of `CC(C)c1c(C(=O)Nc2ccccc2)c(-c2ccccc2)c(-c2ccc(F)cc2)n1CC[C@@H](O)C[C@@H](O)CC(=O)O` [atorvastatin], the plasma cholesterol concentrations is given as “significantly lowers”.
